Experimental data: publication PMC10336132 (2023)

The chains behind the UniProt entries cited, without tags or fusion partners. Where a name states a change or a piece, a line headed by the entry shows the natural chain unless it says otherwise.
UniProt B8GX61: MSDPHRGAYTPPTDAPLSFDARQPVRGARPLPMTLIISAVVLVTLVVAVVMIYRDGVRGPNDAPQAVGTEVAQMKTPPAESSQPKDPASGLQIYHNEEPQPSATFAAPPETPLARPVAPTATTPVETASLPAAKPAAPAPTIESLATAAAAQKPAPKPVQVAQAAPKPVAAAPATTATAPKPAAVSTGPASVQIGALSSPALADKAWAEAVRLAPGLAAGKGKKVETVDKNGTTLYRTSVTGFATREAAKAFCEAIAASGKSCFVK
UniProt A0A0H3C9I3: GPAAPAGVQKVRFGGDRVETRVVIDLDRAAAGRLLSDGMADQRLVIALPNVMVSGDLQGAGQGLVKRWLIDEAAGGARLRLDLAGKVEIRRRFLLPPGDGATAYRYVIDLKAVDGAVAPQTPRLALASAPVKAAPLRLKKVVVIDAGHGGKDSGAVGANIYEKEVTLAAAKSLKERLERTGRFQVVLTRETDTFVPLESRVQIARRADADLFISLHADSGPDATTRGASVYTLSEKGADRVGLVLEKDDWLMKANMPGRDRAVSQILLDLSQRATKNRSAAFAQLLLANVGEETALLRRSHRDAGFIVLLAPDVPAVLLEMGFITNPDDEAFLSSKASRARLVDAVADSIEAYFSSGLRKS
UniProt A0A0H3C9Q9: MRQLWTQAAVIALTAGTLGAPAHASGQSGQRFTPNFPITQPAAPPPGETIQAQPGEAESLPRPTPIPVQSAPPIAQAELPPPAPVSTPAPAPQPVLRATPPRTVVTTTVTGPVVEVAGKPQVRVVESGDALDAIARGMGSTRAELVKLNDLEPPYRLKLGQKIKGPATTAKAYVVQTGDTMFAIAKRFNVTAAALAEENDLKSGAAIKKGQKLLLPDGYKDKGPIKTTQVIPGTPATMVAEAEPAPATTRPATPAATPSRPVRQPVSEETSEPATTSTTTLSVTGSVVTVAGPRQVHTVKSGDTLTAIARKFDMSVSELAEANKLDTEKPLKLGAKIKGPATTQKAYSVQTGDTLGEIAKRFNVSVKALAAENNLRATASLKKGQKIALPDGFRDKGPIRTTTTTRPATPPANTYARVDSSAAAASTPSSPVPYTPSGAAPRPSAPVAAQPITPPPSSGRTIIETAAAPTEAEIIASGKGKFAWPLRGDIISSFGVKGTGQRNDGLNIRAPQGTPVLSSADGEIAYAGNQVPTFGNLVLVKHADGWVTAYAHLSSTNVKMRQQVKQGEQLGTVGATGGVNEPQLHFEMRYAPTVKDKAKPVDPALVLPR

Legend:
[1] = target: DipM-FLAG (Caulobacter crescentus NA1000); assay: affinity purification with mass spectrometry; FLAG-tagged bait produced in C. crescentus in place of the native protein; cells crosslinked with 0.6% formaldehyde, lysed with 0.5% or 1% Triton X-100; capture on anti-FLAG M2 magnetic beads; enrichment against the untagged control
[2] = target: FtsN-GFP (Caulobacter crescentus NA1000) (UniProt B8GX61); assay: affinity purification with mass spectrometry; FtsN-GFP from the endogenous locus in C. crescentus; cells crosslinked with 0.6% formaldehyde, lysed with 1% Triton X-100; capture on GFP-Trap magnetic agarose; wild-type NA1000 as control
[3] = target: SdpA-FLAG (Caulobacter crescentus NA1000); assay: affinity purification with mass spectrometry; FLAG-tagged bait produced in C. crescentus in place of the native protein; cells crosslinked with 0.6% formaldehyde, lysed with 0.5% or 1% Triton X-100; capture on anti-FLAG M2 magnetic beads; enrichment against the untagged control

| binding [1] | binding [2] | binding [3] | Substance |
| --- | --- | --- | --- |
| binds | – | – | AmiC (from UniProt A0A0H3C9I3) (enzyme) |
| binds | – | – | FtsN (from UniProt B8GX61) |
| – | binds | binds | DipM (from UniProt A0A0H3C9Q9) |

Results are given in words; binding and its absence hold for the method and conditions named. Binding seen in cells or lysates may run through a third protein. Here binding means that the protein was enriched with, or labelled near, the bait; the list need not be complete.
